This is one part of the list. These are further read-outs of the screen, such as a control signal, another cell line or another target. No call is given for them. The list favours compounds with an active or inconclusive main result. Words in brackets tell the shape of the fitted curve; partial curves, single points and poor fits give uncertain potencies.
Assay: qHTS Assay for Modulators of Lamin A Splicing
Conditions: HeLa LMNA splicing GFP/RFP minigene ratio, 48 h
In short: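 S3 HeLa cells stably expressing lamin A-EGFP splicing minigene plus DsRed2, 600 cells/well, 48 h compound exposure at 37C. Laser-scanning cytometry; analysed as GFP (500-530 nm)/RFP (575-640 nm) total intensity ratio; 0.5% DMSO vehicle.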

[1] = measured here: GFP splicing reporter channel
[2] = measured here: RFP viability control channel

| Compound | AC50 [1] | AC50 [2] |
| --- | --- | --- |
| COc1ccc(S(=O)(=O)N2CCN(c3ccc(C)cc3C)CC2)cc1OC | 11.2 µM [rising, single point] | 15.8 µM [rising, partial curve] |
| Oc1cccc(NC(=S)Nc2ccc(SC(F)F)cc2)c1 |  | 35.5 µM [rising, single point] |
| Cc1c(C(=O)Nc2cccc(C(F)(F)F)c2)oc2ccc(S(=O)(=O)N3CCC4(CC3)OCCO4)cc12 |  | 3.16 µM [falling, single point] |
| Nc1ncnc2nc(SCCc3ccccc3)[nH]c12 | 35.5 µM [rising, single point] |  |
| O=C(CN(Cc1cccs1)S(=O)(=O)c1ccc(S(=O)(=O)NC2CCCCC2)cc1)Nc1ccccc1 |  | 35.5 µM [rising, single point] |
| CCOC(=O)N1CCN(S(=O)(=O)c2ccc(C(=O)NNc3nc4c(C)cccc4s3)cc2)CC1 |  | 11.2 µM [rising, partial curve] |
| CCOc1ccccc1N(C)C(=O)c1cc(S(=O)(=O)NCCc2ccc(Cl)cc2)ccc1F |  | 10 µM [rising, partial curve] |
| COc1ccc(NS(=O)(=O)c2cc(NC(=O)c3nn(C)c(=O)c4ccccc34)ccc2OC)cc1 |  | 35.5 µM [rising, partial curve, poor fit] |
| CCOc1ccccc1C(=O)Nc1cc(OC)ccc1OC | 35.5 µM [rising, single point] | 35.5 µM [rising, single point] |
| COc1ccc(NC(=O)C2CCCCN2S(=O)(=O)c2ccc(F)cc2)c(OC)c1 (centres undefined) | 35.5 µM [rising, single point] | 31.6 µM [rising, single point] |
| Cc1ccc(C)c2[nH]c(=O)c(CN(Cc3ccco3)C(=O)Nc3ccccc3)cc12 | 28.2 µM [rising, single point] | 11.2 µM [rising, partial curve] |
| OC(CSc1c(Cl)cccc1Cl)CN1CCN(c2ccc(F)cc2)CC1 (centres undefined) |  | 35.5 µM [rising, single point] |
| COc1cccc2nc3cc(C)c(C)cc3nc12 |  | 1.26 µM [rising, partial curve] |
| COC(=O)CN1C(c2cccc(Cl)c2)=Nc2ccc(Cl)cc2C1c1ccccc1 (centres undefined) |  | 11.2 µM [rising, partial curve] |
| COc1cc2c(cc1NC(=O)C(C)Sc1cccc[n+]1[O-])oc1ccccc12 (centres undefined) | 35.5 µM [rising, single point] |  |
| Cc1ccsc1S(=O)(=O)N1CCCC(CCC(=O)NCc2ccccc2F)C1 (centres undefined) |  | 17.8 µM [falling, partial curve, poor fit] |
| O=C(Cn1c(C(F)(F)F)nc2ccccc21)N=Nc1c(O)[nH]c2ccc(Br)cc12 | 20 µM [falling, partial curve] | 20 µM [falling, partial curve] |
| Cc1ccc(NC(=O)c2cc3c(s2)CCCC3)cc1 | 35.5 µM [falling, single point] |  |

Given as tab-separated lines: entries from further up.
Compound	AC50 [1]	AC50 [2]
CCOC(=O)N1CCN(S(=O)(=O)c2ccc(C(=O)NNc3nc4c(C)cccc4s3)cc2)CC1		11.2 µM [rising, partial curve]
CCOc1ccccc1N(C)C(=O)c1cc(S(=O)(=O)NCCc2ccc(Cl)cc2)ccc1F		10 µM [rising, partial curve]

(list continues)

| Compound | AC50 [1] | AC50 [2] |
| --- | --- | --- |
| CCOc1cccc(OCCOc2ccc(C(=O)c3ccccc3)cc2)c1 | 17.8 µM [rising, single point] | 35.5 µM [rising, single point] |
| O=C(Nc1ccc(Oc2ccccc2)cc1)C1CCCO1 (centres undefined) | 35.5 µM [rising, single point] |  |
| COc1ccc(S(=O)(=O)Nc2ccccc2C(=O)Nc2nc(-c3ccc(F)cc3)cs2)cc1OC |  | 5.01 µM [rising, full curve] |
| CC(=O)Nc1ccc(OS(=O)(=O)c2c(C)cc(C)cc2C)cc1 | 35.5 µM [rising, single point] | 31.6 µM [rising, single point] |
| Cc1ncc(C[n+]2csc(CCO)c2C)c(N)n1 | 0.00501 µM [falling, full curve, poor fit] | 0.316 µM [rising, single point] |
| CCOC(=O)c1cnc2nc[nH]n2c1=O | 0.00501 µM [falling, full curve, poor fit] | 0.00501 µM [falling, full curve, poor fit] |
| Cc1ccsc1-c1n[nH]c(=S)n1CC(C)C |  | 0.0891 µM [rising, full curve, poor fit] |
| CN(Cc1ccco1)C(=O)Cn1c(=O)oc2cc(S(=O)(=O)NCc3ccccc3)ccc21 |  | 22.4 µM [rising, partial curve, poor fit] |
| CCOc1ccc(C(=O)N(CN2CCCC2=O)c2ccc(C)cc2)cc1 |  | 15.8 µM [rising, single point] |
| CC(=O)OCC(=O)[C@@]1(O)CC[C@H]2[C@@H]3CCC4=CC(=O)CC[C@]4(C)[C@H]3[C@@H](O)C[C@@]21C | 0.0708 µM [falling, full curve, poor fit] | 0.0316 µM [falling, full curve] |
| Cn1c(CNC2CCCCC2)nc2ccccc21 |  | 0.316 µM [falling, full curve] |
| CCOc1ccc(CN(C)CC(=O)Nc2cccc(C)c2)cc1OC | 11.2 µM [falling, single point] |  |
| O=C(c1ccccc1)c1cccn1CC(=O)N1CCN(c2ccc(F)cc2)CC1 |  | 0.398 µM [falling, full curve, poor fit] |
| CCCn1c(SCC#N)nc2c(c1=O)C1(CCCC1)Cc1ccccc1-2 | 35.5 µM [rising, single point] | 35.5 µM [rising, single point] |
| Clc1ccc(-n2nnnc2-c2ccccc2)cc1 |  | 12.6 µM [rising, partial curve] |
| Clc1ccc(Nc2ncnc3ccc(Br)cc23)cc1 | 7.94 µM [rising, partial curve, poor fit] | 15.8 µM [rising, partial curve] |
| Cc1cc(C=C2C(=O)c3ccccc3C2=O)c(C)n1-c1ccccc1 | 35.5 µM [falling, single point] | 35.5 µM [falling, single point] |
| COc1ccc(-c2cnnc(N/N=C/c3ccc(O)c(OC)c3)n2)cc1 |  | 10 µM [rising, single point] |

From PubChem BioAssay AID1487 (National Center for Advancing Translational Sciences (NCATS), 2009)
